Measured values as given in patent EP2717941B1.
Results are given in words; binding and its absence hold for the method and conditions named. Some binding calls cover weakened binding; strength is not graded here.

Key:
[1] = target: T1, CCR4 (human) (UniProt P51679); assay: flow cytometry, legend of FIG. 12
T1 sequence (looked up): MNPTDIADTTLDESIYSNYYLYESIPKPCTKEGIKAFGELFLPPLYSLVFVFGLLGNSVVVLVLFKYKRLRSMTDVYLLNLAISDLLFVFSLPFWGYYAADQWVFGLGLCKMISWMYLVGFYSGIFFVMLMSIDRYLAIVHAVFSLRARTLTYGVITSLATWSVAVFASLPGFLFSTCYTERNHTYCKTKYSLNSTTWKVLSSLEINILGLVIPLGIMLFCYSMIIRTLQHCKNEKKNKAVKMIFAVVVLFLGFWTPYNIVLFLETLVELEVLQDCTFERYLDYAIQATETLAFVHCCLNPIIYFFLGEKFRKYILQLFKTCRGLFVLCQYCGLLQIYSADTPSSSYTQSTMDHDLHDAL

[2] = target: T1, CCR4 (human); assay: flow cytometry, biotinylated chemokine (1 µM) detected with fluorophore-streptavidin, Tregs of a PC patient
[3] = target: T1, CCR4 (human); assay: flow cytometry, biotinylated chemokine on CCR4-expressing Tregs

binding [1]: binds
binding [2]: binds
binding [3]: binds
B1: biotinylated MDC (bMDC) (ligand, human, UniProt O00626 25-93, looked up)
chain: GPYGANMEDSVCCRDYVRYRLPLRVVKHFYWTSDSCPRPGVVLLTFRDKEICADPRVPWVKMILNKLSQ
modifications: biotinylated (site not stated in Reference Example 2B)
